Experimental data taken from patent US11390828B2, “Catnip cultivar ‘CR9’” (RUTGERS, THE STATE UNIVERSITY OF NEW JERSEY, priority 2016, dated 2022).
Some results were stated once for a whole list of compounds, not compound by compound. For at least one compound, name, drawing or mass did not settle the structure.

Test system: Aedes aegypti
Experiment: Time course one-choice landing assay over 24 hr
Type: in vivo
Settings: 10% treatment, throughout the 24 hr period

CCN(CC)C(=O)c1cccc(C)c1 [DEET]
repellency rate: > 95%
